Laboratory results as given in patent US12025619B2, “Methods and systems for detecting prostaglandins by LC-MS/MS” (Laboratory Corporation of America Holdings, priority 2020, dated 2024).
Several values for one entry are separate records, joined by “and”; a condition that tells them apart may be missing. Equal entries are not always repeated.

Assays:
[1] = Reference interval, human serum
[2] = Spike and recovery, human serum and 6% BSA; settings: for Mean Conc.: 6% BSA; for Mean: human serum
[3] = Sample precision, human serum; settings: for Intra-assay Mean Measured Concentration: batches 2-5

With `CCCCC[C@H](O)/C=C/[C@H]1C(=O)C[C@H](O)[C@@H]1C/C=C\CCCC(=O)O` [PGD2, prostaglandin D2] the “Reference interval, Prostaglandin D2 Concentration in serum” value ([1]; 97.5th percentile, normal human serum samples) was 1.6 to 57 pg/mL, the “Mean Concentration” value ([1]; mean of the human serum reference interval samples) was 15.750 ng/mL and the “Mean Conc.” value ([2]; 0.0 pg/mL added to baseline) was 9.00 pg/mL. For the same compound, the “Mean Conc.” value ([2]; 6.0 pg/mL added to baseline) was 14.9 pg/mL, the “Mean Conc.” value ([2]; 200.0 pg/mL added to baseline) was 207.3 pg/mL and the “Mean Conc.” value ([2]; 600.0 pg/mL added to baseline) was 679.0 pg/mL. It also gave a Mean ([2]; 0.0 pg/mL added to baseline) of 12.23 pg/mL, a Mean ([2]; 6.0 pg/mL added to baseline) of 19.6 pg/mL and a Mean ([2]; 200.0 pg/mL added to baseline) of 191.3 pg/mL. For the same compound, the Mean ([2]; 600.0 pg/mL added to baseline) was 661.0 pg/mL, the “Measured Concentration (replicates)” value ([2]; low level Prostaglandin D2 in 6% BSA, 0.0 pg/mL added to baseline) was 8.62 pg/mL and 8.39 pg/mL and 10.00 pg/mL and the “Measured Concentration (replicates)” value ([2]; low level Prostaglandin D2 in 6% BSA, 6.0 pg/mL added to baseline) was 14.2 pg/mL and 15.6 pg/mL and 15.0 pg/mL. The “Measured Concentration (replicates)” value ([2]; low level Prostaglandin D2 in 6% BSA, 200.0 pg/mL added to baseline) was 214.0 pg/mL and 210.0 pg/mL and 198.0 pg/mL, the “Measured Concentration (replicates)” value ([2]; low level Prostaglandin D2 in 6% BSA, 600.0 pg/mL added to baseline) was 667.0 pg/mL and 658.0 pg/mL and the “Measured Concentration (replicates)” value ([2]; low level Prostaglandin D2 in human serum, 0.0 pg/mL added to baseline) was 13.80 pg/mL and 10.60 pg/mL and 12.30 pg/mL. The “Measured Concentration (replicates)” value ([2]; low level Prostaglandin D2 in human serum, 6.0 pg/mL added to baseline) was 17.4 pg/mL and 17.0 pg/mL, the “Measured Concentration (replicates)” value ([2]; low level Prostaglandin D2 in human serum, 200.0 pg/mL added to baseline) was 186.0 pg/mL (2×) and 202.0 pg/mL and the “Measured Concentration (replicates)” value ([2]; low level Prostaglandin D2 in human serum, 600.0 pg/mL added to baseline) was 668.0 pg/mL and 605.0 pg/mL. The “Intra-assay Mean Measured Concentration” value ([3]; QC1: SPGQC1, Lot 20205, human serum) was 23.7 pg/mL and 23.22 pg/mL and 24.77 pg/mL, the “Inter-assay Mean Measured Concentration” value ([3]; QC1: SPGQC1, human serum) was 23.9 pg/mL and the “Intra-assay Mean Measured Concentration” value ([3]; QC2: SPGQC2, Lot 20205, human serum) was 183.2 pg/mL and 211.0 pg/mL and 215.2 pg/mL. The “Inter-assay Mean Measured Concentration” value ([3]; QC2: SPGQC2, human serum) was 203.1 pg/mL, the “Intra-assay Mean Measured Concentration” value ([3]; QC3: SPGQC3, Lot 20205, human serum) was 488.5 pg/mL and 478.3 pg/mL and 581.5 pg/mL and the “Inter-assay Mean Measured Concentration” value ([3]; QC3: SPGQC3, human serum) was 516.1 pg/mL. The “Intra-assay Mean Measured Concentration” value ([3]; QC4: SPGQC4, Lot 20205, human serum) was 821.7 pg/mL and 997.7 pg/mL and 989.5 pg/mL and the “Inter-assay Mean Measured Concentration” value ([3]; QC4: SPGQC4, human serum) was 936.3 pg/mL.
